The assay concerns Saccharomyces cerevisiae BY4743. As to the kind of experiment: growth (OD600) relative to untreated control; higher = less growth inhibition. As to conditions: compound concentration: 133 uM; 20 h. The protocol:
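NMCCC compounds (133 uM, no IPBC) tested alone against Saccharomyces cerevisiae BY4743 in YPD, 96-well plates, starting OD600 ~0.1. Growth was read as OD600 at 20 h and expressed as % of the untreated control. Single pass.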

Some of the results follow. Most values come without repeats; read them as rough.

The molecule `CC1=C(N[S](=O)(=O)C/2=C(C)/N=C\3S\C=C/N3C2=O)C(=CC=C1)C` showed a growth of 103%. As to `COC(=O)\C1=C\N(NC(=O)C2=CC(=CC=C2Cl)Br)C(=O)C3=CC=CC=C13`, the growth was 91.6%. The figure for `Cc1cnc(NC(=O)CN2CSCC2=O)s1` is 91.7%; for `CC(NC(=O)CN1CCN(Cc2ccc(Br)s2)CC1)c1ccc(F)cc1` (stereo not drawn) it is 96.5%. The figure for `Cc1[nH]c(C(=O)NCC(Nc2ccccc2)C(C)C)c(C)c1C(=O)OC(C)C` (stereo not drawn) is 94.2%. `Cc1cc(C)n(CCC(=O)NCCN2CCN(c3cc(Cl)ccc3C)CC2)n1` came in with a growth of 102%.

The molecule `CS(=O)(=O)N1CCC(C(=O)Nc2cc(-c3cc(Br)ccc3Cl)[nH]n2)CC1` registered a growth of 106%. The figure for `C\C1=C\C(C)(C)N2C(=O)C(=O)C3=CC(=CC1=C23)O` is 95.4%. The figure for `Cc1cc(C(=O)CSc2ncccn2)c(C)n1-c1cccc(F)c1` is 91.3%.

Molecule `Cc1sc2nc(CSC(C)C(=O)OCC(=O)N(C)C)nc(O)c2c1C` (stereo not drawn) gave a growth of 96.2%. For the molecule `CCOC(=O)c1c(C)[nH]c(C)c1S(=O)(=O)NCC(=O)N1c2ccccc2CC1C` (stereo not drawn), the growth amounted to 100%. The figure for `Cc1cc(C)cc(N(CCC#N)C(=O)COC(=O)CNC(=O)c2ccc(Br)o2)c1` is 106%. As to `CCc1ccc(CN2C(=O)CN(S(C)(=O)=O)CC2(C)C(=O)NC2CCCC2)cc1` (stereo not drawn), the growth was 86.7%. For `Nc1cc(N)nc(SC(C(=O)N2CCOCC2)c2ccccc2)n1` (stereo not drawn) the value was 104%; for `COC(=O)C(C)(C)NC(=O)CCN1\C=N/C2=C(C1=O)C(=CS2)C3=CC=C(C)C=C3`, 109%. For `CCn1c(C)cc(C(=O)CSc2n[nH]c(N)n2)c1C` the value was 115%; for `Cc1ccc(Nc2nc(COC(=O)c3nccnc3N)cs2)cc1`, 82.5%; for `CCOC(=O)Cn1c2ccc(F)cc2c2nc(C)sc21`, 90.4%. As to `CCc1nn2c(Cc3c(Cl)cccc3Cl)nnc2s1`, the growth stood at 103%. For `CCOC1=CC(=CC=C1O)C\2CC(=O)N\C(=C2C#N)SCC(=O)NC3=CC=C(C)C=C3C` (stereo not drawn) the value was 102%. Consider `CCN(CC)c1ccc2nnc(CCC(=O)NCc3ccccn3)n2n1`, for which the growth worked out at 101%. The figure for `COc1ccc(OC)c(C(C)NC(=O)CSc2nc(C)c(C)c(C)c2C#N)c1` (stereo not drawn) is 104%; for `ClC1=CC=CC(=C1)NC(=O)CS\C2=N\C(=O)CC(N2)C3=CC=CC=C3` (stereo not drawn) it is 99.2%. The figure for `O=C(CSc1ccc2c(c1)OCCCO2)NC1CCS(=O)(=O)C1` (stereo not drawn) is 104%; for `CC(C)C(Nc1ccc(C(F)(F)F)cc1Cl)C(=O)OCC(=O)N1CCNC1=O` (stereo not drawn) it is 91.9%; for `Cc1[nH]c2ccc(C(=O)OCC(=O)c3cc(C)n(C)c3C)cc2c1C` it is 94.2%. For `Cc1cccc(NC(=O)CN(C)C(=O)c2cnn(-c3ccccc3F)c2C)c1C` the value was 110%. As to `CC(C)OCCN1CCc2cc(S(=O)(=O)N(C)C)ccc21`, the growth was determined as 104%. For `CCC(Sc1nc(O)c2c(n1)CCC2)C(=O)NC1CCCCC1` (stereo not drawn) the value was 93%; for `COCCN(CC(=O)Nc1cccc(C)c1C)C(=O)CCc1c[nH]c2ccccc12`, 117%; for `CC\1(C)CC2=CC=CC=C2\C(=N1)CSC3=CC=CC=C3C(O)=O`, 107%.

`CCOC(=O)\C1=C(/CN(CC)CC)N(C)C(=O)NC1C2=CC=CC=C2` (stereo not drawn): the growth turned out to be 88%. For `CC(C)c1cc(C(=O)N2CCN(c3ccccc3F)CC2)cs1` the value was 97.7%; for `CC(C)(C)c1cc(N)n(-c2ccc(C(=O)O)cc2)n1`, 105%. The figure for `CC(NS(=O)(=O)c1ccc(Cl)c(Cl)c1)C(=O)Nc1cccc(C#N)c1` (stereo not drawn) is 109%; for `CCOC(=O)C(=O)N1\N=C(/CC1(O)C(C)(C)C)C(F)(F)F` (stereo not drawn) it is 95.7%.

`COc1cccc(CN2CCC(NC(=O)c3ccnc(N(C)C)c3)CC2)c1`: the growth amounted to 107%. `CC(=O)Nc1ccc(C(=O)CSc2nc3cc(C)ccc3[nH]2)c(F)c1` came in with a growth of 110%.

The record behind these values is the supplement of paper PMC8007513.
